Source: patent US20130116554A1, “X-RAY IMAGING AT LOW CONTRAST AGENT CONCENTRATIONS AND/OR LOW DOSE RADIATION” (priority 2010, published 2013)

Key:
[1] = CT performance phantom, Dual Energy CT (DECT) with GSI, contrast to noise ratio (CNR)
[2] = CT performance phantom, low kVp scans with iterative reconstruction, dose normalized contrast to noise ratio (CNRD)

With `CC(=O)N(CC(O)CN(C(C)=O)c1c(I)c(C(=O)NCC(O)CO)c(I)c(C(=O)NCC(O)CO)c1I)c1c(I)c(C(=O)NCC(O)CO)c(I)c(C(=O)NCC(O)CO)c1I` (stereo not shown) [Visipaque, iodixanol] as the compound, how does the “improved maximum CNR” value ([1]; DECT scans compared to standard 120 kVp scan at same radiation dose (21.8 mGy)) read?
The value was roughly 36%.

What about the “allowed reduction of iodinated contrast agent concentration for equal CNR” value ([1]; GSI with and without noise suppression compared to standard 120 kVp scan, 21.8 and 12.9 mGy) of the same compound?
The value was “about 25%”.

And the CNRD increase ([2]; 80 kVp compared to 120 kVp, standard FBP, 1 to 10 mgI/ml)?
The CNRD increase was 24%.

What about the “allowed reduction of iodine concentration for equal CNRD” value ([2]; 80 kVp compared to standard 120 kVp scan) of the same compound?
Its value is “about 29%”.

And the “allowed reduction of iodine concentration” value ([2]; 80 kVp with ASIR)?
Its value is “up to 53%”.

What about the “allowed reduction of iodine concentration” value ([2]; 80 kVp with Veo) of the same compound?
The value was no more than 61%.

And the “CNRD increase (average)” value ([2]; ASIR (60%) compared to FBP, 120, 100 and 80 kVp)?
The value was 47%.

What about the “allowed reduction of iodine concentration” value ([2]; Veo at the low dose level (2.7 mGy)) of the same compound?
Its value is 68%.

And the CNRD increase ([2]; Veo compared to FBP, low radiation dose level (2.7 mGy))?
The CNRD increase was 103%.

What about the “CNRD increase (average)” value ([2]; Veo compared to FBP, standard radiation dose level (10.8 mGy)) of the same compound?
The value was 60%.
